Measurements reported in PubChem BioAssay AID1508597 (Cure First, 2020).
The deposit covers about 2,100 reagents; this is a part drawn at random. 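Calls flag viability under 80% in either arm, not effects specific to rucaparib; the reference for percent is not stated.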 The record does not give: the 100% reference.

- Assay: 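Knock-downs altering ovarian cancer cell survival with or without PARP inhibitor rucaparib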 (primary screen)
- Cell system: human ovarian carcinoma lines grown from tumours: OCI-P5x (papillary serous) and OCI-C5x (clear cell)
- Knock-down reagent: siRNA pool against human genes, 1.25 pmol siRNA per well
- Time to read-out: 72 h or 96 h, depending on the cell culture
- Challenge: rucaparib 20 µM (about IC30) or vehicle, present until read-out
- Measurement: 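ATP luminescence measured at 72 or 96 h according to the culture, then normalised and expressed as percent viability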
- Scale: viability, normalised: higher = more viable cells remaining
- Rule for the call: 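Active when normalised viability falls below 80 percent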
- Calls: active = viability under 80%; inactive = viability 80% or more

no.	target gene	rucaparib or vehicle	cell line	technical replicate	viability, normalised (%)	call
1	TK2	Rucaparib	OCI-C5x (clear cell)	1	48.5	active
2	TK2	Rucaparib	OCI-C5x (clear cell)	2	42.8	active
3	TK2	Rucaparib	OCI-C5x (clear cell)	3	41.2	active
4	TK2	Rucaparib	OCI-P5x (serous)	1	74.9	active
5	TK2	Rucaparib	OCI-P5x (serous)	2	64.4	active
6	TK2	Rucaparib	OCI-P5x (serous)	3	50	active
7	TK2	Vehicle	OCI-C5x (clear cell)	1	43	active
8	TK2	Vehicle	OCI-C5x (clear cell)	2	44.2	active
9	TK2	Vehicle	OCI-C5x (clear cell)	3	41.2	active
10	TK2	Vehicle	OCI-P5x (serous)	1	52.2	active
11	TK2	Vehicle	OCI-P5x (serous)	2	48.3	active
12	TK2	Vehicle	OCI-P5x (serous)	3	49.2	active
13	ESR1	Rucaparib	OCI-C5x (clear cell)	1	70.2	active
14	ESR1	Rucaparib	OCI-C5x (clear cell)	2	59.4	active
15	ESR1	Rucaparib	OCI-C5x (clear cell)	3	46.9	active
16	ESR1	Rucaparib	OCI-P5x (serous)	1	44.9	active
17	ESR1	Rucaparib	OCI-P5x (serous)	2	61.5	active
18	ESR1	Rucaparib	OCI-P5x (serous)	3	54.4	active
19	ESR1	Vehicle	OCI-C5x (clear cell)	1	59.9	active
20	ESR1	Vehicle	OCI-C5x (clear cell)	2	63.9	active
21	ESR1	Vehicle	OCI-C5x (clear cell)	3	63.5	active
22	ESR1	Vehicle	OCI-P5x (serous)	1	71.3	active
23	ESR1	Vehicle	OCI-P5x (serous)	2	49.2	active
24	ESR1	Vehicle	OCI-P5x (serous)	3	71.1	active
25	NR3C1	Rucaparib	OCI-C5x (clear cell)	1	54.2	active
26	NR3C1	Rucaparib	OCI-C5x (clear cell)	2	43.7	active
27	NR3C1	Rucaparib	OCI-C5x (clear cell)	3	35	active
28	NR3C1	Rucaparib	OCI-P5x (serous)	1	20.9	active
29	NR3C1	Rucaparib	OCI-P5x (serous)	2	27.7	active
30	NR3C1	Rucaparib	OCI-P5x (serous)	3	23.4	active
31	NR3C1	Vehicle	OCI-C5x (clear cell)	1	31.5	active
32	NR3C1	Vehicle	OCI-C5x (clear cell)	2	34.4	active
33	NR3C1	Vehicle	OCI-C5x (clear cell)	3	40.2	active
34	NR3C1	Vehicle	OCI-P5x (serous)	1	21.5	active
35	NR3C1	Vehicle	OCI-P5x (serous)	2	31	active
36	NR3C1	Vehicle	OCI-P5x (serous)	3	30.8	active
37	CIT	Rucaparib	OCI-C5x (clear cell)	1	83.2	inactive
38	CIT	Rucaparib	OCI-C5x (clear cell)	2	79.1	active
39	CIT	Rucaparib	OCI-C5x (clear cell)	3	90.3	inactive
40	CIT	Rucaparib	OCI-P5x (serous)	1	105	inactive
41	CIT	Rucaparib	OCI-P5x (serous)	2	91.4	inactive
42	CIT	Rucaparib	OCI-P5x (serous)	3	82.5	inactive
43	CIT	Vehicle	OCI-C5x (clear cell)	1	63	active
44	CIT	Vehicle	OCI-C5x (clear cell)	2	68.2	active
45	CIT	Vehicle	OCI-C5x (clear cell)	3	68.4	active
46	CIT	Vehicle	OCI-P5x (serous)	1	87.6	inactive
47	CIT	Vehicle	OCI-P5x (serous)	2	97.1	inactive
48	CIT	Vehicle	OCI-P5x (serous)	3	89.2	inactive
49	FN3K	Rucaparib	OCI-C5x (clear cell)	1	51	active
50	FN3K	Rucaparib	OCI-C5x (clear cell)	2	54.8	active
51	FN3K	Rucaparib	OCI-C5x (clear cell)	3	49.5	active
52	FN3K	Rucaparib	OCI-P5x (serous)	1	104	inactive
53	FN3K	Rucaparib	OCI-P5x (serous)	2	107	inactive
54	FN3K	Rucaparib	OCI-P5x (serous)	3	95.2	inactive
55	FN3K	Vehicle	OCI-C5x (clear cell)	1	47.6	active
56	FN3K	Vehicle	OCI-C5x (clear cell)	2	69.4	active
57	FN3K	Vehicle	OCI-C5x (clear cell)	3	44.6	active
58	FN3K	Vehicle	OCI-P5x (serous)	1	86.7	inactive
59	FN3K	Vehicle	OCI-P5x (serous)	2	103	inactive
60	FN3K	Vehicle	OCI-P5x (serous)	3	98	inactive

Reprinted from the entries so far, 9 entries:
no.	target gene	rucaparib or vehicle	cell line	technical replicate	viability, normalised (%)	call
20	ESR1	Vehicle	OCI-C5x (clear cell)	2	63.9	active
21	ESR1	Vehicle	OCI-C5x (clear cell)	3	63.5	active
22	ESR1	Vehicle	OCI-P5x (serous)	1	71.3	active
23	ESR1	Vehicle	OCI-P5x (serous)	2	49.2	active
24	ESR1	Vehicle	OCI-P5x (serous)	3	71.1	active
25	NR3C1	Rucaparib	OCI-C5x (clear cell)	1	54.2	active
26	NR3C1	Rucaparib	OCI-C5x (clear cell)	2	43.7	active
27	NR3C1	Rucaparib	OCI-C5x (clear cell)	3	35	active
28	NR3C1	Rucaparib	OCI-P5x (serous)	1	20.9	active
